This is one part of the list.
compound: COc1ccc(Cn2ccc3cc(C)c(C(=O)NO)cc32)cc1; assay: dose-dependent thermal stabilisation call (2D-TPP, DLPTP, 10% FDR) (binary (1 = stabilised)); higher = stabilised by the compound; details: system: HL-60 intact cells; concentration range 0.04-10 µM
Experimental: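 2D thermal proteome profiling in intact HL-60 cells treated with BRD-3811 (0, 0.04, 0.29, 2, 10 uM) for 90 min at 37 C, then heated 3 min at one of 12 temperatures (42-63.9 C). Soluble protein was quantified by TMT10 MS. The value is the DLPTP call of the paper: dose-dependent thermal stabilisation over all temperatures at 10% FDR (F-test of a dose-response against a flat model); one experiment, one call per tested protein.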

Amino acid sequences for entries named in this document (tags omitted). A change or cut given only in a name is not applied to a line headed by its entry.
UniProt Q9UFN0: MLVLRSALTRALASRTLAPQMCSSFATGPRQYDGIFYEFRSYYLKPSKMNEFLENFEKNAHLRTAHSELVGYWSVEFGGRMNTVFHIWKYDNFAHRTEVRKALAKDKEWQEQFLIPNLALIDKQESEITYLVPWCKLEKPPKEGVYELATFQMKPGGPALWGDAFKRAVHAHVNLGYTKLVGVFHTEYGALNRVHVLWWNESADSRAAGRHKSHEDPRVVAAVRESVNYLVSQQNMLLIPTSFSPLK
UniProt P03897, whole entry: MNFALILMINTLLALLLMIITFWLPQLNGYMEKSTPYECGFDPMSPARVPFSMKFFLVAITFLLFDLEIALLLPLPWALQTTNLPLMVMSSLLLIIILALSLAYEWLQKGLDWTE
UniProt Q9BT67: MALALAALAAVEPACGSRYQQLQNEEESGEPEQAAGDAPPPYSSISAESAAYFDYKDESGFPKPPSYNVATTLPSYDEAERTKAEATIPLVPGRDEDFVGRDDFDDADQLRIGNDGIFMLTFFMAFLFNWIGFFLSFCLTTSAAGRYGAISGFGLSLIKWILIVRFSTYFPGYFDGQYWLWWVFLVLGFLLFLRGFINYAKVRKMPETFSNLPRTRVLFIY
UniProt Q8IVD9: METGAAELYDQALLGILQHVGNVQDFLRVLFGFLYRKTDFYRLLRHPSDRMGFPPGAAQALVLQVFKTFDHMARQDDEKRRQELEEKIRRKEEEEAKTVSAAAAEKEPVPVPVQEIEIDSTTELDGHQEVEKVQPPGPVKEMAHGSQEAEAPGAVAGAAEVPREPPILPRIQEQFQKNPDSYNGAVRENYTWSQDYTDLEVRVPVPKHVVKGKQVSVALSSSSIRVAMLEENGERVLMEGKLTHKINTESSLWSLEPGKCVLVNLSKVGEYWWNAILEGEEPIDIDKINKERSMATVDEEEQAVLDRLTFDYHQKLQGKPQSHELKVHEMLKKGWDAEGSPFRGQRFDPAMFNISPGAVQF
UniProt Q96IV0: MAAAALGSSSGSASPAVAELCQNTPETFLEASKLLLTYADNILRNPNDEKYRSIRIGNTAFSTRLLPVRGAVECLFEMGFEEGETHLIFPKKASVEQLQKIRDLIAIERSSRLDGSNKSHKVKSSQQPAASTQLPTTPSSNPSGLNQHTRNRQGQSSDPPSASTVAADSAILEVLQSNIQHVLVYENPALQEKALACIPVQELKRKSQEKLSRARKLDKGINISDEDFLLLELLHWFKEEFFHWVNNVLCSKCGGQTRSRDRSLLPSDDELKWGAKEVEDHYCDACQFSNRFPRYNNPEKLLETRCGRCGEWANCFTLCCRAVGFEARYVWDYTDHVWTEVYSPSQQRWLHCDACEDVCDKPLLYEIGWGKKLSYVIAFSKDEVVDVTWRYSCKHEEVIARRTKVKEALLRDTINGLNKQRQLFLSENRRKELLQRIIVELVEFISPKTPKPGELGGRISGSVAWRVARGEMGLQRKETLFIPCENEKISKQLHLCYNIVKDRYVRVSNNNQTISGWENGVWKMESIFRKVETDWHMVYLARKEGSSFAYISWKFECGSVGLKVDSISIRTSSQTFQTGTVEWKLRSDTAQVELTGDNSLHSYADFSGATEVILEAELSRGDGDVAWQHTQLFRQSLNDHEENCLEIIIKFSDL
UniProt Q5SY16: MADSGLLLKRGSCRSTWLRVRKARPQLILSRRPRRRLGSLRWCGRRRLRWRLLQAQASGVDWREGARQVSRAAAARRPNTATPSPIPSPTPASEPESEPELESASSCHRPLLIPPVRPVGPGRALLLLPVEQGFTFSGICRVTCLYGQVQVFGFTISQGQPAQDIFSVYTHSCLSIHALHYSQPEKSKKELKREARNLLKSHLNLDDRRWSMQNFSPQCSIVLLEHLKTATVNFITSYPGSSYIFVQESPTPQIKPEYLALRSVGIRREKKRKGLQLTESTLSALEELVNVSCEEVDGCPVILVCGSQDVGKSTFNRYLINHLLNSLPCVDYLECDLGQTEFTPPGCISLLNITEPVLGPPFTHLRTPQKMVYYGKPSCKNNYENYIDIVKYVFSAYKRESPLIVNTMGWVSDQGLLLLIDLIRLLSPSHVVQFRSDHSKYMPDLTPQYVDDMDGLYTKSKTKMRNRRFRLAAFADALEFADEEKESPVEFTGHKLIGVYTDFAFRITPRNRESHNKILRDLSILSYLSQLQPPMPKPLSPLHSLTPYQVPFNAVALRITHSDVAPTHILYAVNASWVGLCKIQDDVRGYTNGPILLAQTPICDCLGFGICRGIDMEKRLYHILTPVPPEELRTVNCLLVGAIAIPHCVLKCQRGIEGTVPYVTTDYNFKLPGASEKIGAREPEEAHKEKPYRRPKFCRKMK
UniProt Q15080: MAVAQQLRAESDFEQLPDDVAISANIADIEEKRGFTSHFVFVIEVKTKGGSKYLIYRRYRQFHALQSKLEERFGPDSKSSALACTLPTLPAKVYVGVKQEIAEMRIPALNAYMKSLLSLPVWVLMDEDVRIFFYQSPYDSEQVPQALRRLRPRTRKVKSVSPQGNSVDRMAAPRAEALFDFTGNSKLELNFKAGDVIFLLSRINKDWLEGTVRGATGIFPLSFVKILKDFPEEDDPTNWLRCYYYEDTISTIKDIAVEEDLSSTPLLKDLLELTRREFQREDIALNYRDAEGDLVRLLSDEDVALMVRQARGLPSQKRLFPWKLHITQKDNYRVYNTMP
UniProt O43674, whole entry: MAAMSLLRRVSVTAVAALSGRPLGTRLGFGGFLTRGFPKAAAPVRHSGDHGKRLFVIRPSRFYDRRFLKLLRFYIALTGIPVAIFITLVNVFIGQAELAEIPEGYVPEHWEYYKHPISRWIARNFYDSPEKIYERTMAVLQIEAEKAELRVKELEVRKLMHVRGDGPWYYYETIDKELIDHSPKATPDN
UniProt Q9UI09, whole entry: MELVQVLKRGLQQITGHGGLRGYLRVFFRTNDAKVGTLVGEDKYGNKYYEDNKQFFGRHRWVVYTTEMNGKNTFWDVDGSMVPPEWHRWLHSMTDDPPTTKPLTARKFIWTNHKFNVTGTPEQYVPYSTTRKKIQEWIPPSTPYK
UniProt Q9Y2I1: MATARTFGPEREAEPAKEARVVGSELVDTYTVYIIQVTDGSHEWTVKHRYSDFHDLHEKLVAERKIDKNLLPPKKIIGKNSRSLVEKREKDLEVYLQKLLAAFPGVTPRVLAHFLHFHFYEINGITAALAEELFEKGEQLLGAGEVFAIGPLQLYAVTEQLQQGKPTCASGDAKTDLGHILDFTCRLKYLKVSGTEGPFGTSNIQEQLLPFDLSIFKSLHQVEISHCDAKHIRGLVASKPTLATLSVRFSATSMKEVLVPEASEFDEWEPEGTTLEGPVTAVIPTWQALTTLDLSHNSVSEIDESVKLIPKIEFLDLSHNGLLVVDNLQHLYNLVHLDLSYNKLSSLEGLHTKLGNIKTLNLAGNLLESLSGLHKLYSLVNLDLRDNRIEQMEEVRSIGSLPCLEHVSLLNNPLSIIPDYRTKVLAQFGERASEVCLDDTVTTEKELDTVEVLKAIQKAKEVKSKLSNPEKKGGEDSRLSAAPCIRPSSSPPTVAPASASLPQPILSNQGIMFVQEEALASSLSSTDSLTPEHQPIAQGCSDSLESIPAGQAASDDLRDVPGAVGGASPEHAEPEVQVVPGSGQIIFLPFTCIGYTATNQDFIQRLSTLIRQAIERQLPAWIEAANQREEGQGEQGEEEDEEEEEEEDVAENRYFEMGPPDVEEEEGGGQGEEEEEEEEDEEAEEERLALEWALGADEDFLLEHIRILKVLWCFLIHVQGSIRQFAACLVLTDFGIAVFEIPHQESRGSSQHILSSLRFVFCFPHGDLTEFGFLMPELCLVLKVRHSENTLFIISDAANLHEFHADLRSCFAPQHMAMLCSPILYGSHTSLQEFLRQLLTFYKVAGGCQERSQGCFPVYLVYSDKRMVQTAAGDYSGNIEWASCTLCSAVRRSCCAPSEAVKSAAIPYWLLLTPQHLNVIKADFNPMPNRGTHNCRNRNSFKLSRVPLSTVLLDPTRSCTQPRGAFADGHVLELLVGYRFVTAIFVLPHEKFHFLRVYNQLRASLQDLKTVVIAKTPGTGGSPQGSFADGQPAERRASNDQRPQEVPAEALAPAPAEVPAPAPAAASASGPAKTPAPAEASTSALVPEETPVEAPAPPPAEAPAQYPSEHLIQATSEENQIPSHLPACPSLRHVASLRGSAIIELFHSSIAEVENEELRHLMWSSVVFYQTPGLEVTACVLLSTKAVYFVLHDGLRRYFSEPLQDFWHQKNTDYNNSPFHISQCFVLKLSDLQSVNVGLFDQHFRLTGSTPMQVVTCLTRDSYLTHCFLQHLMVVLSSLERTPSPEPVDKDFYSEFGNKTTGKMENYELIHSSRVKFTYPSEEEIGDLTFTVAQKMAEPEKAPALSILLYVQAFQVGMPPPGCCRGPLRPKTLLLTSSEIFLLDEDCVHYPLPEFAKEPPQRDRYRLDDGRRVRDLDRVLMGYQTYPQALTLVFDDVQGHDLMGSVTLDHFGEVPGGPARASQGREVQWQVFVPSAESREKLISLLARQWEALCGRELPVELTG
UniProt O43181, whole entry: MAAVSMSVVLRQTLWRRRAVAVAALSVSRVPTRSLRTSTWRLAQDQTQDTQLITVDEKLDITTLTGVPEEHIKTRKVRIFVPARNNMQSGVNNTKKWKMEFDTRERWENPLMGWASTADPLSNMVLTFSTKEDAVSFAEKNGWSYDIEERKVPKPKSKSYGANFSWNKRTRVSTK
UniProt P61970, whole entry: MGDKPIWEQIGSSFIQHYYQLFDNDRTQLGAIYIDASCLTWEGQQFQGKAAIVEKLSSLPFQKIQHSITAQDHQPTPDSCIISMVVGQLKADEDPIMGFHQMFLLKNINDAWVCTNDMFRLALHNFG
UniProt O15381: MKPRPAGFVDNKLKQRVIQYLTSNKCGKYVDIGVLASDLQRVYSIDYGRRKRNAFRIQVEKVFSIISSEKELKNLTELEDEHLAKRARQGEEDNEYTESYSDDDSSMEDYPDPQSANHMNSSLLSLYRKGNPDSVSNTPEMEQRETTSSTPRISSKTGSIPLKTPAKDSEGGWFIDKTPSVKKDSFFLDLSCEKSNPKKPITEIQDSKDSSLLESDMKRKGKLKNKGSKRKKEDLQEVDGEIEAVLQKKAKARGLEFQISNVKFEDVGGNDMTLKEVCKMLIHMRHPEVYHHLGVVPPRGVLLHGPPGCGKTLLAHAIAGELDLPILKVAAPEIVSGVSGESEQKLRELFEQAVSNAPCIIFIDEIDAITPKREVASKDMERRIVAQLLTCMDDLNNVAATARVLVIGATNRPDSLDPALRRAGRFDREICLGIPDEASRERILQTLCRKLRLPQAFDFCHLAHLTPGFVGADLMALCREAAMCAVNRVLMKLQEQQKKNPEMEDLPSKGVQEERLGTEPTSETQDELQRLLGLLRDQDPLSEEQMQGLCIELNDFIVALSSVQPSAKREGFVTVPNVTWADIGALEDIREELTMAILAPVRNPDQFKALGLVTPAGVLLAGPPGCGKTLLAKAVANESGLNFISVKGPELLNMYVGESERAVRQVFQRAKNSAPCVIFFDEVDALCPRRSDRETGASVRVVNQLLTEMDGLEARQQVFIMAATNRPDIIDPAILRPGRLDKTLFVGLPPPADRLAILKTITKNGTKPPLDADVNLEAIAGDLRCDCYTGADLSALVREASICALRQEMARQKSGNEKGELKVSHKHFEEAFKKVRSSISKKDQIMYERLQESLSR
UniProt Q8TDX7: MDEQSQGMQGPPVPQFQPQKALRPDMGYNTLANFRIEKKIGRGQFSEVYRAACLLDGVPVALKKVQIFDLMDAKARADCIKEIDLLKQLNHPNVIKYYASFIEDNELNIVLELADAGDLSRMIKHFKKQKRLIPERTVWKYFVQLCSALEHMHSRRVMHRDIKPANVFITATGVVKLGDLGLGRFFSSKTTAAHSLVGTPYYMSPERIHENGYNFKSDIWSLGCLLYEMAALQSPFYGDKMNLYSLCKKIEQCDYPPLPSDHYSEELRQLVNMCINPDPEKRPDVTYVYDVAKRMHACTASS
UniProt Q9HCD5: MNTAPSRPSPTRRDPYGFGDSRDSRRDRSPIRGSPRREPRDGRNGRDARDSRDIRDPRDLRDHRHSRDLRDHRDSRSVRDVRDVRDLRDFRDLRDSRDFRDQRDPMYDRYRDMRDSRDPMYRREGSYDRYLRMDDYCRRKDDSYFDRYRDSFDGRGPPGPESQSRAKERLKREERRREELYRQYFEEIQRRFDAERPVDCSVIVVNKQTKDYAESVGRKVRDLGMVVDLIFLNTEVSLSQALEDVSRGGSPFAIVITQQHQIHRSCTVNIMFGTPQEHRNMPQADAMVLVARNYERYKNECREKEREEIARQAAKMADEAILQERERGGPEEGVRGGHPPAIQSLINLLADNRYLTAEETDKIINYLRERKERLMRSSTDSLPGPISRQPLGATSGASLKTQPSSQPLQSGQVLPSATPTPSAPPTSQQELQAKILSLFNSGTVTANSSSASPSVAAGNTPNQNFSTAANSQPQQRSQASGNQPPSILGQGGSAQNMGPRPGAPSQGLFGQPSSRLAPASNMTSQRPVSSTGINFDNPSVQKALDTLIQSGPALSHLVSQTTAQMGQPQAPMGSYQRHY

Target	dose-dependent thermal stabilisation call
NUDT5 (UniProt Q9UKK9)	inactive: 0
NIPSNAP3A (UniProt Q9UFN0)	inactive: 0
NUP214 (UniProt P35658)	inactive: 0
ND3 (UniProt P03897)	inactive: 0
NDFIP1 (UniProt Q9BT67)	inactive: 0
NUDCD3 (UniProt Q8IVD9)	inactive: 0
NGLY1 (UniProt Q96IV0)	inactive: 0
NOL9 (UniProt Q5SY16)	inactive: 0
NCF4 (UniProt Q15080)	inactive: 0
NAGA (UniProt P17050)	inactive: 0
NDUFB5 (UniProt O43674)	inactive: 0
NHLRC2 (UniProt Q8NBF2)	inactive: 0
NMT1 (UniProt P30419)	inactive: 0
NDUFA12 (UniProt Q9UI09)	inactive: 0
NISCH (UniProt Q9Y2I1)	inactive: 0
NOB1 (UniProt Q9ULX3)	inactive: 0
NFRKB (UniProt Q6P4R8)	inactive: 0
NDUFS4 (UniProt O43181)	inactive: 0
NUP54 (UniProt Q7Z3B4)	inactive: 0
NRD1 (UniProt O43847)	inactive: 0
NBN (UniProt O60934)	inactive: 0
NUTF2 (UniProt P61970)	inactive: 0
NOP5/NOP58	inactive: 0
NVL (UniProt O15381)	inactive: 0
NEK7 (UniProt Q8TDX7)	inactive: 0
NUP205 (UniProt Q92621)	inactive: 0
NCOA5 (UniProt Q9HCD5)	inactive: 0

Two entries from above, with bars between the fields.
Target | dose-dependent thermal stabilisation call
ND3 (UniProt P03897) | inactive: 0
NOB1 (UniProt Q9ULX3) | inactive: 0
